Results: the supplement of paper PMC10338343
± gives the standard deviation. This is a selection; strong and weak results do not stand in their true shares. The uncertainty is large for many entries. This is one part of the list.

Key:
[1] = test system: MILI (PIWIL2) piRISC loaded with L1MC piRNA (26 nt); assay: pre-steady-state target cleavage rate (min^-1); higher = faster piRNA-guided slicing of the target; details: guide: L1MC piRNA 5'p-UAACUAAAUACUAUGCAAGCUGUAGG
Outline: (§1)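 With or without 500 nM GTSF1 partner protein, 1 nM active affinity-purified piRISC carrying one synthetic guide was mixed with 0.1 nM transcribed, DNA-blocked target RNA library in HEPES–potassium acetate buffer at 33 °C for 0–8 or 0–960 min. Uncleaved targets were sequenced and normalised to depth and to weakly complementary targets, three trials were pooled, and k3 was capped at 0.0001 min^-1. The pre-steady-state cleavage rate came from a burst-and-steady-state fit.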

[2] = test system: MIWI (PIWIL1) piRISC loaded with L1MC piRNA (30 nt); assay: as above; details: guide: L1MC piRNA 5'p-UAACUAAAUACUAUGCAAGCUGUAGGUCCU
Outline: as §1

[3] = test system: EfPiwi piRISC loaded with L1MC piRNA (26 nt); assay: pre-steady-state target cleavage rate (min^-1); guide: L1MC piRNA 5'p-UAACUAAAUACUAUGCAAGCUGUAGG; MIWI and MILI are mouse PIWI proteins and EfPiwi is from a freshwater sponge; tags in brackets are library labels; higher = faster piRNA-guided slicing of the target
Outline: as §1

[4] = auxiliary factor: 500 nM mouse GTSF1
[5] = auxiliary factor: none (no GTSF1)
[6] = auxiliary factor: 500 nM Ephydatia muelleri Gtsf1
[7] = auxiliary factor: none (no Gtsf1)

Sequence	pre-steady-state target cleavage rate [1, 4]	pre-steady-state target cleavage rate [1, 5]	pre-steady-state target cleavage rate [2, 5]	pre-steady-state target cleavage rate [3, 6]	pre-steady-state target cleavage rate [3, 7]	pre-steady-state target cleavage rate [2, 4]
UCCUGCUACAGCUUGCAUAGAUAUUAGUUA	0.0176 ± 0.0073	0.00186 ± 0.0027	0.00137 ± 0.0037	0.00184 ± 0.0047	0.000329 ± 0.016	–
UCCUGGUACAGCUUGCAUAGUUUUUUCAAA	0.0153 ± 0.0075	0.0016 ± 0.005	0.000999 ± 0.006	0.000722 ± 0.011	0.000138 ± 0.067	–
UCCUGGAUGUCGAAGCAUAGUUUAUAGUUA	0.000969 ± 0.0094	0.000777 ± 0.0075	0.000451 ± 0.015	0.000455 ± 0.013	0.000151 ± 0.025	–
UCCUGGAAGUGCUUGCAUAGUAUUUACAAA	0.00262 ± 0.0043	0.000742 ± 0.0059	0.00191 ± 0.0031	0.00194 ± 0.0026	0.000296 ± 0.025	–
UCCUGGAUCAGCUUGCAUAGUAAAUUCAAA	0.0136 ± 0.0055	0.000896 ± 0.0067	0.000313 ± 0.0074	0.000708 ± 0.0046	0.000313 ± 0.018	–
UCCUGGAUGUCGAUGCAGUAGUAUUUAGUUA	0.00062 ± 0.013	0.000121 ± 0.029	0.000405 ± 0.019	0.000762 ± 0.012	< 0.0001	–
UCCUGGAUGUCGAACCUAAGUAUUUAGUUA	0.000205 ± 0.013	0.000567 ± 0.0057	0.000408 ± 0.0076	0.000329 ± 0.012	0.000115 ± 0.041	–
UCCUGGAUGUGCAAGCAUAGUAUUUAGAAA	0.0135 ± 0.0052	0.00103 ± 0.0047	0.0013 ± 0.0053	0.00423 ± 0.0039	0.000422 ± 0.02	–
UCCUGGAUGUCGAAGCGAUAGUAUUUAGUUA	0.00135 ± 0.0064	0.000548 ± 0.011	0.000512 ± 0.013	0.000251 ± 0.013	0.000248 ± 0.028	–
UCCUGGAUGUCGAUGCAUAGAUAUUUAGUUA	0.00288 ± 0.0034	0.00146 ± 0.0047	0.00174 ± 0.0046	0.000274 ± 0.016	0.000405 ± 0.015	–
UCCUGGAUCAGCUUGCAUAGAAAUUAGUUA	0.0245 ± 0.0096	0.00186 ± 0.0035	0.0026 ± 0.0029	0.000977 ± 0.0042	0.000365 ± 0.016	–
UCCUGGAUGAGGUUGCAUAGUAUUAAGUUA	0.0422 ± 0.018	0.00493 ± 0.0031	0.0029 ± 0.0033	0.00126 ± 0.0045	0.000845 ± 0.011	–
UCCUGGAUGUCCUUAGCAUAGUAUUUAGUUA	0.0724 ± 0.016	0.00307 ± 0.0025	0.00204 ± 0.0036	0.00479 ± 0.003	0.000598 ± 0.0079	–
UCCUGGUACUGCUUGCAUAGUAUUUACAAA	0.00977 ± 0.0049	0.001 ± 0.0052	0.00226 ± 0.0041	0.00278 ± 0.0027	0.000196 ± 0.049	–
UCCUGGAUGAGCAAGCAUAGUAUUUAGUAA	0.123 ± 0.018	0.00443 ± 0.0027	0.00319 ± 0.0036	0.000534 ± 0.017	0.00051 ± 0.017	–
UCCUGGAUGUGCUUGCAAUGUAUUUAGUUA	0.0104 ± 0.005	0.0111 ± 0.0028	0.00269 ± 0.0035	0.000217 ± 0.022	0.000481 ± 0.022	–
UCCUGGAACAGCUUGCUAUGUAUUUUCAAA	0.00361 ± 0.0044	0.000565 ± 0.009	0.000522 ± 0.0095	0.00116 ± 0.0064	0.00051 ± 0.015	–
UCCUGGAUCAGGUUGCAUAGUAUUUACAAA	0.0312 ± 0.011	0.00206 ± 0.003	0.00207 ± 0.0043	0.00151 ± 0.0025	0.000154 ± 0.053	–
UCCUGGAUGUCCUUGCAUAGUAUUUGUUA	0.0123 ± 0.0057	0.000646 ± 0.0097	0.00094 ± 0.0086	0.000519 ± 0.0054	0.000324 ± 0.023	–
UCCUGCUACACGUUGCAUAGUAUUUACAAA	0.0287 ± 0.01	0.000896 ± 0.0075	0.000641 ± 0.0086	0.000612 ± 0.0074	0.000365 ± 0.027	–

Sequence	pre-steady-state target cleavage rate [1, 4]	pre-steady-state target cleavage rate [1, 5]	pre-steady-state target cleavage rate [2, 5]	pre-steady-state target cleavage rate [3, 6]	pre-steady-state target cleavage rate [3, 7]	pre-steady-state target cleavage rate [2, 4]
UCCUGGAUCAGCUUGCAUAGAAUUUACAAA	0.00722 ± 0.0036	0.000653 ± 0.0079	0.00263 ± 0.0027	0.000793 ± 0.0035	0.000384 ± 0.015	–
UCCUGGUACAGCUUGCUAUGUAUUUAGUAA	0.00603 ± 0.0046	0.000973 ± 0.0079	0.00245 ± 0.0026	0.00136 ± 0.0062	0.000356 ± 0.018	–
UCCUGGAUGUCGAACCCUAGUAUUUAGUUA	0.00179 ± 0.0048	0.00223 ± 0.0032	0.000735 ± 0.0084	< 0.0001	< 0.0001	–
UCCUGGAUGUCGAUGCAUAGUAUUGAGUUA	0.0608 ± 0.013	0.00306 ± 0.0032	0.00155 ± 0.0045	0.00169 ± 0.0049	0.00057 ± 0.013	–
UCCUCCUACAGCUUGCAUACAAUUUAGAAA	0.00364 ± 0.0044	0.000635 ± 0.0098	0.000411 ± 0.0087	0.00216 ± 0.0041	0.000314 ± 0.022	–
UCCUGGAAGUGCUUGCAUAGUAUUUUCAAA	0.00163 ± 0.0063	0.000731 ± 0.0069	0.000991 ± 0.005	0.000754 ± 0.0045	0.000484 ± 0.012	–
UCCUGGAUGAGCUUGGAUAGUAUUUAGAAA	0.00224 ± 0.0052	0.000731 ± 0.0073	0.00213 ± 0.0042	0.00463 ± 0.0034	0.000206 ± 0.034	–
UCCUGGAUGUCGUUGCAUAGUAUUUAAUUA	0.0359 ± 0.013	0.000931 ± 0.0074	0.00181 ± 0.005	0.00205 ± 0.0045	0.00061 ± 0.013	–
UCCUGGAUGUCGUAUGCAUAGUAUUUAGUUA	0.0833 ± 0.012	0.00487 ± 0.0028	0.00121 ± 0.008	0.00476 ± 0.0027	0.000789 ± 0.0096	–
UCCUGGAUGUCCUUGCAAAGUAUUUAGAUA	0.0324 ± 0.012	0.00187 ± 0.0031	0.00153 ± 0.0031	0.000272 ± 0.021	0.000525 ± 0.012	–
UCCUGGAUGUCGAUGCGAUAGUAUUUAGUUA	0.00186 ± 0.0048	0.000721 ± 0.0066	0.000513 ± 0.0093	0.00144 ± 0.0043	0.000108 ± 0.028	–
UCCUGGAACAGCUUGCAUAGUAUUAUGAAA	0.0563 ± 0.02	0.00111 ± 0.0049	0.00235 ± 0.0035	0.00336 ± 0.0021	< 0.0001	–
UCCUGGAUCAGCUAGCAUAGUAUUUACAAA	0.127 ± 0.023	0.00215 ± 0.0032	0.0018 ± 0.0037	0.00262 ± 0.0028	0.000279 ± 0.028	–
UCCUCCUACAGCUUGCAUACAUUUUAGUUA	0.00509 ± 0.0039	0.00189 ± 0.0027	0.000635 ± 0.0052	0.000531 ± 0.0077	0.000182 ± 0.021	–
UCCUGGUACAGCUUGCUAAGUAUUUAGAAA	0.0132 ± 0.0056	0.000817 ± 0.0063	0.00161 ± 0.0041	0.00205 ± 0.0037	0.00019 ± 0.041	–
UCCUGGAUGUCGAUGCAUAGAUUUAGUUA	0.00137 ± 0.0055	0.000668 ± 0.0061	0.0012 ± 0.0054	0.000174 ± 0.019	0.000266 ± 0.017	–
UCCUGGAUGUGCAUGCUUAGUAUUUAGUUA	0.0349 ± 0.011	0.0103 ± 0.0032	0.00233 ± 0.0033	0.000684 ± 0.0063	0.000524 ± 0.018	–
UCCUGCAACAGCUUGCUUAGUAUUUAGUUA	0.293 ± 0.016	0.00661 ± 0.0026	–	0.0143 ± 0.0036	0.00117 ± 0.007	1.4 ± 0.097
UCCUGGAUGUCGAUGCUUAGUAUUAAGUUA	0.00316 ± 0.0048	0.000344 ± 0.012	0.000462 ± 0.01	0.000575 ± 0.0091	0.000136 ± 0.044	–

A different layout for some results above:
Sequence | pre-steady-state target cleavage rate [1, 4] | pre-steady-state target cleavage rate [1, 5] | pre-steady-state target cleavage rate [2, 5] | pre-steady-state target cleavage rate [3, 6] | pre-steady-state target cleavage rate [3, 7] | pre-steady-state target cleavage rate [2, 4]
UCCUGGAUGUCGAUGCAGUAGUAUUUAGUUA | 0.00062 ± 0.013 | 0.000121 ± 0.029 | 0.000405 ± 0.019 | 0.000762 ± 0.012 | < 0.0001 | –
UCCUGGAUGUGCUUGCAAUGUAUUUAGUUA | 0.0104 ± 0.005 | 0.0111 ± 0.0028 | 0.00269 ± 0.0035 | 0.000217 ± 0.022 | 0.000481 ± 0.022 | –
UCCUGGAUGAGCUUGGAUAGUAUUUAGAAA | 0.00224 ± 0.0052 | 0.000731 ± 0.0073 | 0.00213 ± 0.0042 | 0.00463 ± 0.0034 | 0.000206 ± 0.034 | –
